Data reported in patent US20140044713A1.
These are yes or no findings as the source states them, for the method shown. For some assays here: Binding seen in cells or lysates may run through a third protein. Some results given as binding are weak or reduced against the parent protein; the word gives no strength. For some assays here: Sequences can lack the tags named with a protein.

Amino acid sequences for entries named in this document (tags omitted). A change or cut given only in a name is not applied to a line headed by its entry. Residues count along the entry.
UniProt Q9BXB1, residues 25-951: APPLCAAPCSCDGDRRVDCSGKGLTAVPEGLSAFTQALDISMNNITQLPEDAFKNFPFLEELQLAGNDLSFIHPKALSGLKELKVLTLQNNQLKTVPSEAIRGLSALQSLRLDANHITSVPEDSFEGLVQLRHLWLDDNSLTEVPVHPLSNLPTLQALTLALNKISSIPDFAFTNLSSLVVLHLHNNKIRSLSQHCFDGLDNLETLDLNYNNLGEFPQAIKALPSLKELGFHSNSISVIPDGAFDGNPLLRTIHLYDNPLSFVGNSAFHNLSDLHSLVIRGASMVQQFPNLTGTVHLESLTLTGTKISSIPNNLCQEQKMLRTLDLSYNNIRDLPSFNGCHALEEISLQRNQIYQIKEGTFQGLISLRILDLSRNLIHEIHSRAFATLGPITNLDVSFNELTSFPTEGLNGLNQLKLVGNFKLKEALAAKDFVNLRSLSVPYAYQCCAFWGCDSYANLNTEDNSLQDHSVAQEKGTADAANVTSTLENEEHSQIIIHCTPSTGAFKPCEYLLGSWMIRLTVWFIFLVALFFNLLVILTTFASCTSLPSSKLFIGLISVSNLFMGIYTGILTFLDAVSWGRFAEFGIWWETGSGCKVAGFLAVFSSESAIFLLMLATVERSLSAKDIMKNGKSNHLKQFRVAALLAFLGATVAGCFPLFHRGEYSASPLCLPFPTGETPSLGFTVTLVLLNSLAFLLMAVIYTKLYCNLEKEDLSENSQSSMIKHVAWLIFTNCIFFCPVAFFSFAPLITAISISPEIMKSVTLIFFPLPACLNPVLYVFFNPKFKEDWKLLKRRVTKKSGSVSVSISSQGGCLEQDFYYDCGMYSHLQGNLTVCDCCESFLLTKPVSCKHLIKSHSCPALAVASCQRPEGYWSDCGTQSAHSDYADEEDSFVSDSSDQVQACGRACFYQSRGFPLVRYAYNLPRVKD
UniProt Q2MKA7: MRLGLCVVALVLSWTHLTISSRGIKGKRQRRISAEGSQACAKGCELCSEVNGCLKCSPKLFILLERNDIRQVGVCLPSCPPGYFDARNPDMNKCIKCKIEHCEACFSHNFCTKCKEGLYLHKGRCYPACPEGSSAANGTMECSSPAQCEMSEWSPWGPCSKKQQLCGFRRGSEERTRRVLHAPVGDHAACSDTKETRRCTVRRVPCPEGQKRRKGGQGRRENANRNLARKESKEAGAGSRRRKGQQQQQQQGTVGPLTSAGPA

Experiments:
[1] = biological target: FLAG/HA-tagged Lgr4 (human) (UniProt Q9BXB1); assay: Rspondin-Fc pull-down from transfected HEK293T cells, western blot
[2] = biological target: T1, FLAG/HA-tagged Lgr5 (human) (UniProt O75473); assay: as above
T1 sequence (looked up): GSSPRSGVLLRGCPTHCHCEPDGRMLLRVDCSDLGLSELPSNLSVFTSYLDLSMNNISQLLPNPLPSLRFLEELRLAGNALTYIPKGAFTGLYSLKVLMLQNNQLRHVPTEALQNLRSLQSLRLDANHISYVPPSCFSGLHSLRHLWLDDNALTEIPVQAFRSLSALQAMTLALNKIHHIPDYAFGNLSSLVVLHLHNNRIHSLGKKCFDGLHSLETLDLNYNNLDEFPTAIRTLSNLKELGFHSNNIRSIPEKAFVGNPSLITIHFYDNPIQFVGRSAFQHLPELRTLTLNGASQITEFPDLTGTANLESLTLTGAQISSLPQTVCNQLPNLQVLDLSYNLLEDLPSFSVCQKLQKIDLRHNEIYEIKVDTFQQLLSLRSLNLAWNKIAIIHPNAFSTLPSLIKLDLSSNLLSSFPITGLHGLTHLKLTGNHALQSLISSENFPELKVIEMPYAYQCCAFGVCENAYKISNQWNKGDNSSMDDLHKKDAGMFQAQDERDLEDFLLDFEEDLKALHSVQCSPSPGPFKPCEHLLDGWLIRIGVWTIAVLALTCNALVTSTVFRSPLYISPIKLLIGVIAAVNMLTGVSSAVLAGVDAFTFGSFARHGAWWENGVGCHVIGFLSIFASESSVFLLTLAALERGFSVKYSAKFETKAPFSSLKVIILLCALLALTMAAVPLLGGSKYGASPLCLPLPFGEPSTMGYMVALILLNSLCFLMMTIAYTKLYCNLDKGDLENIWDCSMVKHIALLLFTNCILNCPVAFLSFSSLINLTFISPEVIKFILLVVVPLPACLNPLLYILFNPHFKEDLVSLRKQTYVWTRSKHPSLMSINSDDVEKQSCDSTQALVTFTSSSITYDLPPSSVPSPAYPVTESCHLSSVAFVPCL

[3] = biological target: T2, FLAG/HA-tagged Lgr6 (human) (UniProt Q9HBX8); assay: as above
T2 sequence (looked up): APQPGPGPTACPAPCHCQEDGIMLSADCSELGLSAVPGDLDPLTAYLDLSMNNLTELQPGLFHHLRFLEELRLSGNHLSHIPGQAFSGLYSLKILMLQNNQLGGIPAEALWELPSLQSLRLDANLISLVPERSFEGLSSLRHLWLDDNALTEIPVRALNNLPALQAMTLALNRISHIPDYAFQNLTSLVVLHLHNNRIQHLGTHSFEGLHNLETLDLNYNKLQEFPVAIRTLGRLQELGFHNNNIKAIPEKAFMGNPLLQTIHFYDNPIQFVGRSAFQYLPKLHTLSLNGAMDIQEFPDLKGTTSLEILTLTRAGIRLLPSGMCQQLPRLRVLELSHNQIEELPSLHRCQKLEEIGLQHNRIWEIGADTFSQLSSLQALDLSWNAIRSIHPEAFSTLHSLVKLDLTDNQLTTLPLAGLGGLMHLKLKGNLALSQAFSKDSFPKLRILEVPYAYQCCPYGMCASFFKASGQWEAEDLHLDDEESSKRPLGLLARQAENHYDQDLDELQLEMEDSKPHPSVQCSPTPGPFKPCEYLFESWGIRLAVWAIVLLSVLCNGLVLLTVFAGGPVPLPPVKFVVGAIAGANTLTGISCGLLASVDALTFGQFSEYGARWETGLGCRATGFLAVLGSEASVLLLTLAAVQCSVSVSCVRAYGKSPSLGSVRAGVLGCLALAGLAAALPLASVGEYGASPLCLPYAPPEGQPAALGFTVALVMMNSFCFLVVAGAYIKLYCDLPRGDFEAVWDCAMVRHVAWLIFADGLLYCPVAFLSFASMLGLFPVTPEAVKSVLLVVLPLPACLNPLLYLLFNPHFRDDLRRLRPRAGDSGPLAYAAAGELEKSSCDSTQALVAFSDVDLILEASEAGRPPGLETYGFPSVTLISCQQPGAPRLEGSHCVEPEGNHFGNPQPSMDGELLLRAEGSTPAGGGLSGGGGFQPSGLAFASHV

[4] = biological target: FLAG/HA-tagged Lgr4 (human) (UniProt Q9BXB1); assay: Rspo1-Fc on transfected HEK293T cells, proteinG pull-down, FLAG western blot
[5] = biological target: T1, FLAG/HA-tagged Lgr5 (human); assay: as above
[6] = biological target: T2, FLAG/HA-tagged Lgr6 (human); assay: as above
[7] = biological target: FLAG/HA-tagged Lgr4 (human) (UniProt Q9BXB1); assay: Rspo1-Fc (˜1 µg/ml) on transfected HEK293T cells, proteinG pull-down, FLAG western blot
[8] = biological target: T1, FLAG/HA-tagged Lgr5 (human); assay: as above
[9] = biological target: T2, FLAG/HA-tagged Lgr6 (human); assay: as above
[10] = biological target: T1, FLAG/HA-tagged Lgr5 (human); assay: Rspo1-Fc pull-down from HEK293T cells transfected with full-length or deleted Lgr5, western blot
[11] = biological target: T1, FLAG/HA-tagged Lgr5 (human); assay: right panels: lysates of cells expressing Lgr5-FH incubated with Rspo1 after cell lysis, FLAG immunoprecipitation, anti-hIgG-Fc Western blot (anti-FLAG blot below shows the precipitated Lgr5 proteins)
[12] = biological target: T3, LGR5-478 (exo domain of LGR5 without the CRL region) (UniProt O75473); assay: gel filtration of purified proteins
T3 sequence (looked up): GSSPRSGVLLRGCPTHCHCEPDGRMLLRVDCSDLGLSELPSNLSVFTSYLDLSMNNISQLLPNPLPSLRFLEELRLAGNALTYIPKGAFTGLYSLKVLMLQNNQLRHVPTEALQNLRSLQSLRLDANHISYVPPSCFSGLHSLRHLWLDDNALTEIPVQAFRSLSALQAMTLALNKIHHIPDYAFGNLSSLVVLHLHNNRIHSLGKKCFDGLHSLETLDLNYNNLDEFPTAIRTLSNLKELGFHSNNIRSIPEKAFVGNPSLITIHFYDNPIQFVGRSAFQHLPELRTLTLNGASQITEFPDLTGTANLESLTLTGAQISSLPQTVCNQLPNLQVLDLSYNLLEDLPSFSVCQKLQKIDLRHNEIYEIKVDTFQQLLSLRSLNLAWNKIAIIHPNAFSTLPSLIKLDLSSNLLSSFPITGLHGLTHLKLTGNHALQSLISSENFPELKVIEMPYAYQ

[13] = biological target: T4, LGR5-543 (full exo domain of LGR5: CRL + Leucine rich repeats) (UniProt O75473); assay: gel filtration of purified proteins
T4 sequence (looked up): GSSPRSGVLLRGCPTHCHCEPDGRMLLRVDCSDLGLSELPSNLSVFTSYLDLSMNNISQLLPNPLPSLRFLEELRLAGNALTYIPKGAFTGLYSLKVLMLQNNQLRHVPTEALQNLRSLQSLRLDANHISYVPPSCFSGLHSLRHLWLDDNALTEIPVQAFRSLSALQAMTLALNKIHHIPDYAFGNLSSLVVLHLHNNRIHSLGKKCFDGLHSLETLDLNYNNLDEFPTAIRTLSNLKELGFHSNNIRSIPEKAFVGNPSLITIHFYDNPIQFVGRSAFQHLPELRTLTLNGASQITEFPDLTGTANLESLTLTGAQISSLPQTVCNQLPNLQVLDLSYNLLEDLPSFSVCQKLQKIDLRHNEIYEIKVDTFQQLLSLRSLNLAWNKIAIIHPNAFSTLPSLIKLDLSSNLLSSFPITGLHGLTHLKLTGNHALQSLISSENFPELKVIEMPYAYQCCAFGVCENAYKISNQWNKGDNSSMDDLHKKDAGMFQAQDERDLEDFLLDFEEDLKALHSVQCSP

[14] = biological target: T3, LGR5-478 (exo domain of LGR5 without the CRL region); assay: gel filtration of purified proteins (LGR5-478 incubated with the antibody)

Measured: binding

Rspo1-Fc fusion protein (from UniProt Q2MKA7 21-263)
not listed: [12] | [13] | [14]
binds: all other assays above

RSp1 (purified Rspondin1 of the gel filtration experiment, FIG. 26) (from UniProt Q2MKA7 21-263) (ligand)
binds: [12] | [13] | [14]
